# The list shows a part of the results. Single values are uncertain, as repeats are few or missing.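 The apoptosis fraction was the count of cleaved-PARP antibody-stained nuclei relative to all DNA-stained nuclei, imaged in 1,536-well plates. Screening doses were set so most cells survived, and baseline and induced cleaved-PARP levels vary greatly across cell lines.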
# Test system: IST-MEL1
# Assay: cleaved PARP positive nuclei fraction relative to DMSO control; melanoma cells; higher = more apoptosis
# Conditions: library dose: low library concentration; 72 h
row,Structure (SMILES),cleaved PARP positive nuclei fraction
1,"Cc1cn(-c2cc(NC(=O)c3ccc(C)c(Nc4nccc(-c5cccnc5)n4)c3)cc(C(F)(F)F)c2)cn1 [nilotinib] + CNC(=O)c1cc(Oc2ccc(NC(=O)Nc3ccc(Cl)c(C(F)(F)F)c3)cc2)ccn1 [sorafenib] (first compound 0.2 µM, partner dose 0.4 µM)",60.2%
2,"O=c1[nH]nc(Sc2ncc([N+](=O)[O-])s2)n1-c1ccc2c(c1)OCCO2 + Nc1nc(F)nc2c1ncn2[C@@H]1O[C@H](CO)[C@@H](O)[C@@H]1O [fludarabine] (first compound 0.2 µM, partner dose 0.2 µM)",45.4%
3,"Cc1cn(-c2cc(NC(=O)c3ccc(C)c(Nc4nccc(-c5cccnc5)n4)c3)cc(C(F)(F)F)c2)cn1 [nilotinib] + CCCS(=O)(=O)Nc1ccc(F)c(C(=O)c2c[nH]c3ncc(Cl)cc23)c1F [PLX4720] (first compound 0.2 µM, partner dose 0.08 µM)",176%
4,"O=C(Nc1cc(C(F)(F)F)cc(C(F)(F)F)c1)c1cc(Cl)ccc1O + CC(=O)O[C@@]12CO[C@@H]1C[C@H](O)[C@@]1(C)C(=O)[C@H](O)C3=C(C)[C@@H](OC(=O)[C@H](O)[C@@H](NC(=O)OC(C)(C)C)c4ccccc4)C[C@@](O)([C@@H](OC(=O)c4ccccc4)[C@H]21)C3(C)C [Docetaxel] (first compound 0.016 µM, partner dose 0.0001 µM)",161%
5,"O=C(/C=C/c1cccnc1)NCCCCC1CCN(C(=O)c2ccccc2)CC1 + Nc1nc(F)nc2c1ncn2[C@@H]1O[C@H](CO)[C@@H](O)[C@@H]1O [fludarabine] (first compound 0.01 µM, partner dose 0.2 µM)",35.9%
6,"N#CC[C@H](C1CCCC1)n1cc(-c2ncnc3[nH]ccc23)cn1 [ruxolitinib] + NC1(c2ccc(-c3nc4ccn5c(=O)[nH]nc5c4cc3-c3ccccc3)cc2)CCC1 [MK2206] (first compound 1 µM, partner dose 0.4 µM)",199%
7,"CCCCCCCCCCCCCCCCCCOP(=O)([O-])OC1CC[N+](C)(C)CC1 [Perifosine] + Cn1c(=O)n(-c2ccc(C(C)(C)C#N)cc2)c2c3cc(-c4cnc5ccccc5c4)ccc3ncc21 [NVP-BEZ235] (first compound 0.4 µM, partner dose 0.004 µM)",132%
8,"CC[C@]1(O)C[C@H]2CN(CCc3c([nH]c4ccccc34)[C@@](C(=O)OC)(c3cc4c(cc3OC)N(C=O)[C@H]3[C@@](O)(C(=O)OC)[C@H](OC(C)=O)[C@]5(CC)C=CCN6CC[C@]43[C@@H]65)C2)C1 [vincristine] + CC(=O)O[C@@]12CO[C@@H]1C[C@H](O)[C@@]1(C)C(=O)[C@H](O)C3=C(C)[C@@H](OC(=O)[C@H](O)[C@@H](NC(=O)OC(C)(C)C)c4ccccc4)C[C@@](O)([C@@H](OC(=O)c4ccccc4)[C@H]21)C3(C)C [Docetaxel] (first compound 0.0001 µM, partner dose 0.0001 µM)",114%
9,"CCCCCCCCCCCCCCCCCCOP(=O)([O-])OC1CC[N+](C)(C)CC1 [Perifosine] + CO[C@H]1C[C@@H]2CC[C@@H](C)[C@@](O)(O2)C(=O)C(=O)N2CCCC[C@H]2C(=O)O[C@H]([C@H](C)C[C@@H]2CC[C@@H](OCCO)[C@H](OC)C2)CC(=O)[C@H](C)/C=C(\C)[C@@H](O)[C@@H](OC)C(=O)[C@H](C)C[C@H](C)/C=C/C=C/C=C/1C [everolimus] (first compound 0.4 µM, partner dose 0.02 µM)",132%
10,"Cc1ccc(Nc2nccc(N(C)c3ccc4c(C)n(C)nc4c3)n2)cc1S(N)(=O)=O [Pazopanib] + CS(=O)(=O)CCNCc1ccc(-c2ccc3ncnc(Nc4ccc(OCc5cccc(F)c5)c(Cl)c4)c3c2)o1 [lapatinib] (first compound 0.4 µM, partner dose 0.8 µM)",114%
11,"N#CC[C@H](C1CCCC1)n1cc(-c2ncnc3[nH]ccc23)cn1 [ruxolitinib] + C[C@]1(c2nc3c(C(N)=O)cccc3[nH]2)CCCN1 [Veliparib] (first compound 1 µM, partner dose 1.4 µM)",122%
12,"CC[C@]1(O)C[C@H]2CN(CCc3c([nH]c4ccccc34)[C@@](C(=O)OC)(c3cc4c(cc3OC)N(C=O)[C@H]3[C@@](O)(C(=O)OC)[C@H](OC(C)=O)[C@]5(CC)C=CCN6CC[C@]43[C@@H]65)C2)C1 [vincristine] + Cn1cnc2c(F)c(Nc3ccc(Br)cc3Cl)c(C(=O)NOCCO)cc21 [selumetinib] (first compound 0.0001 µM, partner dose 0.015 µM)",133%
13,"CC[C@]1(O)C[C@H]2CN(CCc3c([nH]c4ccccc34)[C@@](C(=O)OC)(c3cc4c(cc3OC)N(C=O)[C@H]3[C@@](O)(C(=O)OC)[C@H](OC(C)=O)[C@]5(CC)C=CCN6CC[C@]43[C@@H]65)C2)C1 [vincristine] + Nc1cccc2c1CN(C1CCC(=O)NC1=O)C2=O [lenalidomide] (first compound 0.0001 µM, partner dose 1 µM)",62.7%
14,"N#CC[C@H](C1CCCC1)n1cc(-c2ncnc3[nH]ccc23)cn1 [ruxolitinib] + CCN(CC)CCNC(=O)c1c(C)[nH]c(/C=C2\C(=O)Nc3ccc(F)cc32)c1C [sunitinib] (first compound 1 µM, partner dose 0.4 µM)",35%
15,"COc1cc([C@@H]2c3cc4c(cc3[C@@H](O[C@@H]3O[C@@H]5CO[C@@H](C)O[C@H]5[C@H](O)[C@H]3O)[C@H]3COC(=O)[C@H]23)OCO4)cc(OC)c1O [etoposide] + O=C(/C=C/c1cccnc1)NCCCCC1CCN(C(=O)c2ccccc2)CC1 [FK866] (first compound 0.02 µM, partner dose 0.01 µM)",43.9%
16,"O=c1[nH]nc(Sc2ncc([N+](=O)[O-])s2)n1-c1ccc2c(c1)OCCO2 + CC(=O)O[C@@]12CO[C@@H]1C[C@H](O)[C@@]1(C)C(=O)[C@H](O)C3=C(C)[C@@H](OC(=O)[C@H](O)[C@@H](NC(=O)OC(C)(C)C)c4ccccc4)C[C@@](O)([C@@H](OC(=O)c4ccccc4)[C@H]21)C3(C)C [Docetaxel] (first compound 0.2 µM, partner dose 0.0001 µM)",459%
17,"N#CC[C@H](C1CCCC1)n1cc(-c2ncnc3[nH]ccc23)cn1 [ruxolitinib] + NC(=O)c1ccc(N(C(N)=O)c2c(F)cccc2F)nc1-c1ccc(F)cc1F [VX702] (first compound 1 µM, partner dose 0.4 µM)",67.8%
18,"N#CC[C@H](C1CCCC1)n1cc(-c2ncnc3[nH]ccc23)cn1 [ruxolitinib] + Cn1sc(=O)n(Cc2ccccc2)c1=O [TDZD-8] (first compound 1 µM, partner dose 0.4 µM)",60.4%
19,"CC[C@]1(O)C[C@H]2CN(CCc3c([nH]c4ccccc34)[C@@](C(=O)OC)(c3cc4c(cc3OC)N(C=O)[C@H]3[C@@](O)(C(=O)OC)[C@H](OC(C)=O)[C@]5(CC)C=CCN6CC[C@]43[C@@H]65)C2)C1 [vincristine] + C[C@@H](Oc1cc(-c2cnn(C3CCNCC3)c2)cnc1N)c1c(Cl)ccc(F)c1Cl [Crizotinib] (first compound 0.0001 µM, partner dose 0.2 µM)",25.8%
20,"O=c1[nH]nc(Sc2ncc([N+](=O)[O-])s2)n1-c1ccc2c(c1)OCCO2 + CN(c1ncccc1CNc1nc(Nc2ccc3c(c2)CC(=O)N3)ncc1C(F)(F)F)S(C)(=O)=O [PF562271] (first compound 0.2 µM, partner dose 0.08 µM)",116%
21,"O=C(Nc1cc(C(F)(F)F)cc(C(F)(F)F)c1)c1cc(Cl)ccc1O + Nc1ccn([C@@H]2O[C@H](CO)[C@@H](O)C2(F)F)c(=O)n1 [gemcitabine] (first compound 0.016 µM, partner dose 0.0004 µM)",76.2%
22,"COc1cc([C@@H]2c3cc4c(cc3[C@@H](O[C@@H]3O[C@@H]5CO[C@@H](C)O[C@H]5[C@H](O)[C@H]3O)[C@H]3COC(=O)[C@H]23)OCO4)cc(OC)c1O [etoposide] + CCCS(=O)(=O)Nc1ccc(F)c(C(=O)c2c[nH]c3ncc(Cl)cc23)c1F [PLX4720] (first compound 0.02 µM, partner dose 0.08 µM)",59.2%
23,"CC[C@]1(O)C[C@H]2CN(CCc3c([nH]c4ccccc34)[C@@](C(=O)OC)(c3cc4c(cc3OC)N(C=O)[C@H]3[C@@](O)(C(=O)OC)[C@H](OC(C)=O)[C@]5(CC)C=CCN6CC[C@]43[C@@H]65)C2)C1 [vincristine] + Cn1c(=O)n(-c2ccc(C(C)(C)C#N)cc2)c2c3cc(-c4cnc5ccccc5c4)ccc3ncc21 [NVP-BEZ235] (first compound 0.0001 µM, partner dose 0.004 µM)",180%
24,"COc1cc([C@@H]2c3cc4c(cc3[C@@H](O[C@@H]3O[C@@H]5CO[C@@H](C)O[C@H]5[C@H](O)[C@H]3O)[C@H]3COC(=O)[C@H]23)OCO4)cc(OC)c1O [etoposide] + CN(c1ncccc1CNc1nc(Nc2ccc3c(c2)CC(=O)N3)ncc1C(F)(F)F)S(C)(=O)=O [PF562271] (first compound 0.02 µM, partner dose 0.08 µM)",93.1%

# A different layout for some results above.
row | Structure (SMILES) | cleaved PARP positive nuclei fraction
8 | CC[C@]1(O)C[C@H]2CN(CCc3c([nH]c4ccccc34)[C@@](C(=O)OC)(c3cc4c(cc3OC)N(C=O)[C@H]3[C@@](O)(C(=O)OC)[C@H](OC(C)=O)[C@]5(CC)C=CCN6CC[C@]43[C@@H]65)C2)C1 [vincristine] + CC(=O)O[C@@]12CO[C@@H]1C[C@H](O)[C@@]1(C)C(=O)[C@H](O)C3=C(C)[C@@H](OC(=O)[C@H](O)[C@@H](NC(=O)OC(C)(C)C)c4ccccc4)C[C@@](O)([C@@H](OC(=O)c4ccccc4)[C@H]21)C3(C)C [Docetaxel] (first compound 0.0001 µM, partner dose 0.0001 µM) | 114%
9 | CCCCCCCCCCCCCCCCCCOP(=O)([O-])OC1CC[N+](C)(C)CC1 [Perifosine] + CO[C@H]1C[C@@H]2CC[C@@H](C)[C@@](O)(O2)C(=O)C(=O)N2CCCC[C@H]2C(=O)O[C@H]([C@H](C)C[C@@H]2CC[C@@H](OCCO)[C@H](OC)C2)CC(=O)[C@H](C)/C=C(\C)[C@@H](O)[C@@H](OC)C(=O)[C@H](C)C[C@H](C)/C=C/C=C/C=C/1C [everolimus] (first compound 0.4 µM, partner dose 0.02 µM) | 132%
10 | Cc1ccc(Nc2nccc(N(C)c3ccc4c(C)n(C)nc4c3)n2)cc1S(N)(=O)=O [Pazopanib] + CS(=O)(=O)CCNCc1ccc(-c2ccc3ncnc(Nc4ccc(OCc5cccc(F)c5)c(Cl)c4)c3c2)o1 [lapatinib] (first compound 0.4 µM, partner dose 0.8 µM) | 114%
11 | N#CC[C@H](C1CCCC1)n1cc(-c2ncnc3[nH]ccc23)cn1 [ruxolitinib] + C[C@]1(c2nc3c(C(N)=O)cccc3[nH]2)CCCN1 [Veliparib] (first compound 1 µM, partner dose 1.4 µM) | 122%
12 | CC[C@]1(O)C[C@H]2CN(CCc3c([nH]c4ccccc34)[C@@](C(=O)OC)(c3cc4c(cc3OC)N(C=O)[C@H]3[C@@](O)(C(=O)OC)[C@H](OC(C)=O)[C@]5(CC)C=CCN6CC[C@]43[C@@H]65)C2)C1 [vincristine] + Cn1cnc2c(F)c(Nc3ccc(Br)cc3Cl)c(C(=O)NOCCO)cc21 [selumetinib] (first compound 0.0001 µM, partner dose 0.015 µM) | 133%
13 | CC[C@]1(O)C[C@H]2CN(CCc3c([nH]c4ccccc34)[C@@](C(=O)OC)(c3cc4c(cc3OC)N(C=O)[C@H]3[C@@](O)(C(=O)OC)[C@H](OC(C)=O)[C@]5(CC)C=CCN6CC[C@]43[C@@H]65)C2)C1 [vincristine] + Nc1cccc2c1CN(C1CCC(=O)NC1=O)C2=O [lenalidomide] (first compound 0.0001 µM, partner dose 1 µM) | 62.7%
14 | N#CC[C@H](C1CCCC1)n1cc(-c2ncnc3[nH]ccc23)cn1 [ruxolitinib] + CCN(CC)CCNC(=O)c1c(C)[nH]c(/C=C2\C(=O)Nc3ccc(F)cc32)c1C [sunitinib] (first compound 1 µM, partner dose 0.4 µM) | 35%

# Reference: the supplement of paper PMC4604168 (melanoma cell lines)
